In PMC8216813:
Results are given in words; binding and its absence hold for the method and conditions named. Binding seen in cells or lysates may run through a third protein. Some results given as binding are weak or reduced against the parent protein; the word gives no strength.

Chains of the proteins cited; added tags and fusions are not shown.
UniProt P63208: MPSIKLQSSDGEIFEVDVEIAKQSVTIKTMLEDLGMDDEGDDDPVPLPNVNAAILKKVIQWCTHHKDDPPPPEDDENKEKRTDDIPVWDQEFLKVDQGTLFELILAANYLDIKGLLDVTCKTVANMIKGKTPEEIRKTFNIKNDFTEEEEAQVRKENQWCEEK
UniProt Q9NYY3: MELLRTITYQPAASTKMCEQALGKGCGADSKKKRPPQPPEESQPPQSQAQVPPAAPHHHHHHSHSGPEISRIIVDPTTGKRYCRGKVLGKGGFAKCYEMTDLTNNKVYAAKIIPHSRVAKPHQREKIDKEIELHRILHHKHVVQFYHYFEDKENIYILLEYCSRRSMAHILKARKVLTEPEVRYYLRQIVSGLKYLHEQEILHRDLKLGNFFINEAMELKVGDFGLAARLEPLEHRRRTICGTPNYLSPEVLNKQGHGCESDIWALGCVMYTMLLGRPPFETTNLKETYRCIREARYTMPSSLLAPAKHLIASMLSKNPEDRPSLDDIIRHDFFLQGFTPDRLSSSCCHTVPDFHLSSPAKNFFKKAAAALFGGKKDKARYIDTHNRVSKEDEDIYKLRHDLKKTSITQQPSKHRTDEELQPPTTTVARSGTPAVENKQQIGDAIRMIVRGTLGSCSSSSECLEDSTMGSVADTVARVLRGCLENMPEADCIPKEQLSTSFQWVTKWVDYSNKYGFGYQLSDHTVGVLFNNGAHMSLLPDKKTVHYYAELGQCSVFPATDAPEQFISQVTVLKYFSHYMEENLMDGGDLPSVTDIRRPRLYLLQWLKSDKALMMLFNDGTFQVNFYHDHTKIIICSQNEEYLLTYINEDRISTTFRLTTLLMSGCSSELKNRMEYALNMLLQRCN

Molecular target: S-phase kinase-associated protein 1 (UniProt P63208)
Test: co-IP; cell lysates precleared with protein A/G magnetic beads, immunoprecipitated with the primary antibody Flag at 4°C overnight, protein A/G magnetic beads, Western blot

## polo-like kinase 2 (from UniProt Q9NYY3 1-685)
  binding: binds
